Laboratory results taken from the supplement of paper PMC10849652.
The list shows a part of the results.

The chains behind the UniProt entries cited, without tags or fusion partners. Where a name states a change or a piece, a line headed by the entry shows the natural chain unless it says otherwise.
UniProt Q13951, whole entry, looked up: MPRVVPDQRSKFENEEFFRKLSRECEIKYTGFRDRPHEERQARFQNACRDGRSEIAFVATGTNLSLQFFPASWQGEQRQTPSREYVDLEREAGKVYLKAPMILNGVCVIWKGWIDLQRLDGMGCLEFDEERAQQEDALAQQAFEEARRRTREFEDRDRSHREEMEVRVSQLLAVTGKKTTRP
UniProt P24863: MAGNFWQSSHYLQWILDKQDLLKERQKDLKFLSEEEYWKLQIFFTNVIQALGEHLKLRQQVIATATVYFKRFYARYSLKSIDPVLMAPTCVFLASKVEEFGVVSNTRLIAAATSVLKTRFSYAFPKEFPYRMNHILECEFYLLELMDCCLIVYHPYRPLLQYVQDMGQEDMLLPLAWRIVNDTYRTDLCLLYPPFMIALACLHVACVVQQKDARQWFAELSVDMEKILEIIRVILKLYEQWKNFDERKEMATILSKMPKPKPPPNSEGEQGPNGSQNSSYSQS
UniProt Q9ULG6: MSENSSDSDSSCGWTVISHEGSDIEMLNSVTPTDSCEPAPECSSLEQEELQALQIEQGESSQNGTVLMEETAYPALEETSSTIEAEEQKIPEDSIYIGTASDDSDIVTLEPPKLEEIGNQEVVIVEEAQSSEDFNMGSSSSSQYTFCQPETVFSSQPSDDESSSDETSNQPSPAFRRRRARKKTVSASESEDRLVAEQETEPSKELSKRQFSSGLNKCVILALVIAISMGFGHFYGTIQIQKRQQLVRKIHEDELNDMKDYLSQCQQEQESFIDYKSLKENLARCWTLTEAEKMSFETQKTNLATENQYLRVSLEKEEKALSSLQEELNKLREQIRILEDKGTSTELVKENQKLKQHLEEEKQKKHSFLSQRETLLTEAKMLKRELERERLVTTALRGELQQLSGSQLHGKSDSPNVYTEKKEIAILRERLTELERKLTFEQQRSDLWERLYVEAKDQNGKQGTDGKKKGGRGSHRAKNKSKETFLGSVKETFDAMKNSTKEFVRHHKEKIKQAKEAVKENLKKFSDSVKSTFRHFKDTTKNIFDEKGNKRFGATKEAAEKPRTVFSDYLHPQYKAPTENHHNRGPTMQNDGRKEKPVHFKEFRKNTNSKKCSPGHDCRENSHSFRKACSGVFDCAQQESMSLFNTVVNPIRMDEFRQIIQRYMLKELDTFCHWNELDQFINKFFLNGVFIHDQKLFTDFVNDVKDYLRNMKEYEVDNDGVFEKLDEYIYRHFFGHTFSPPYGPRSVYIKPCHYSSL
UniProt P83916, whole entry, looked up: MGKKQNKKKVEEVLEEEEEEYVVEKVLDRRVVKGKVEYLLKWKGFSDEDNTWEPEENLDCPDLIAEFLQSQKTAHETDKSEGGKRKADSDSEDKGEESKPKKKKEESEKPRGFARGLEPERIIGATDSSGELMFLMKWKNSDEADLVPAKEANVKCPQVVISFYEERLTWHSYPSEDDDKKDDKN
UniProt P16152: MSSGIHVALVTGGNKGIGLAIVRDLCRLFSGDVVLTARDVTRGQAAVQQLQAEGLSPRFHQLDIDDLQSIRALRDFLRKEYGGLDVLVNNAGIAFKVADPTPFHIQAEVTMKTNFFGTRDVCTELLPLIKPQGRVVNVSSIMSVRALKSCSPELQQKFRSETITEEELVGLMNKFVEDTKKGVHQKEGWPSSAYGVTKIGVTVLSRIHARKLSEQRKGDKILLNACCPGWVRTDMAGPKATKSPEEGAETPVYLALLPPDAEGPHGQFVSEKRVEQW
UniProt Q6P4E1: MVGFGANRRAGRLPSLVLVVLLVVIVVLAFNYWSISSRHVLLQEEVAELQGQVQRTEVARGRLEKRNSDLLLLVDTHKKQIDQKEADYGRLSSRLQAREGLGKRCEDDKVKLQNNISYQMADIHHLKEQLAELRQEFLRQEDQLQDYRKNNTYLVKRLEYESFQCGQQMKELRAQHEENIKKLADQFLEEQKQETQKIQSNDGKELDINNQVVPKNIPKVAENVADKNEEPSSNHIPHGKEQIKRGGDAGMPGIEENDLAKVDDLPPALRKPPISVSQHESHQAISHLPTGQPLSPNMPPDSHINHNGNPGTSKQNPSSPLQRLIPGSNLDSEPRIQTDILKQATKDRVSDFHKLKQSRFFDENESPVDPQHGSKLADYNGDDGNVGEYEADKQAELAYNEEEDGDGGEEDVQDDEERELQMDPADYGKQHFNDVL
UniProt O95810: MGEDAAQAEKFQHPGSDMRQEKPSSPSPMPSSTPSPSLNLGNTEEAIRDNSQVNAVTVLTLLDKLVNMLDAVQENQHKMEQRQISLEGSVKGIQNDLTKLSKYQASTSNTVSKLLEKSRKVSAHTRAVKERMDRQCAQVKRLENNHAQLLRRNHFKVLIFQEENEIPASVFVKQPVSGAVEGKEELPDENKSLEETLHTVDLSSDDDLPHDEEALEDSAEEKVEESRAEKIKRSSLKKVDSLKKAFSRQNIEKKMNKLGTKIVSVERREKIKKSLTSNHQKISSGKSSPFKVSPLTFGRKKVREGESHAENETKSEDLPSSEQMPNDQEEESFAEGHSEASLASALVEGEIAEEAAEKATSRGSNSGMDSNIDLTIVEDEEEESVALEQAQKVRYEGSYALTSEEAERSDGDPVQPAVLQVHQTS
UniProt Q8N163, whole entry, looked up: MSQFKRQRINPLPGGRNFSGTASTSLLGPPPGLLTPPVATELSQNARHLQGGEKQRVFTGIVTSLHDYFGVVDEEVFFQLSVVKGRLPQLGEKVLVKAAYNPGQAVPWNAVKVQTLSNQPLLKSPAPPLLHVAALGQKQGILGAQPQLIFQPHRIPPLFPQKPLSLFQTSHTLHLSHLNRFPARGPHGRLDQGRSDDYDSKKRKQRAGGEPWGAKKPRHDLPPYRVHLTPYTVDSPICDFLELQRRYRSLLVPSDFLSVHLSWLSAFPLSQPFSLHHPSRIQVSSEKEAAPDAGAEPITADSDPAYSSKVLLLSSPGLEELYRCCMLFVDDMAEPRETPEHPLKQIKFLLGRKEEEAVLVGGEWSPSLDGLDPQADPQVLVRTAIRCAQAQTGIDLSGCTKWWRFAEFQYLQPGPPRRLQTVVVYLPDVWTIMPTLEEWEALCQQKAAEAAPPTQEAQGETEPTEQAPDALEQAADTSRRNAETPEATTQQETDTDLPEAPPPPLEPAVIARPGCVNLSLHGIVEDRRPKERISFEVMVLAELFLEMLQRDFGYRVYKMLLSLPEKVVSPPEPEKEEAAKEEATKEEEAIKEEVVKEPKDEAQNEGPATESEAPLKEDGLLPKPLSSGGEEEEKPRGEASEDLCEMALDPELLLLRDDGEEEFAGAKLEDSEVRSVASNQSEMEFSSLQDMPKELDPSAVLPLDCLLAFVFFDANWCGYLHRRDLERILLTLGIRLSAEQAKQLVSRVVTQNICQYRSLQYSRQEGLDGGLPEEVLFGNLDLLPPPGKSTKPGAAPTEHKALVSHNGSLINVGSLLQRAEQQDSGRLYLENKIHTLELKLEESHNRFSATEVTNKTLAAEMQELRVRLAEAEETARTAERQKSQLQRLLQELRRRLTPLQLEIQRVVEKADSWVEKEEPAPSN
UniProt P08962, whole entry, looked up: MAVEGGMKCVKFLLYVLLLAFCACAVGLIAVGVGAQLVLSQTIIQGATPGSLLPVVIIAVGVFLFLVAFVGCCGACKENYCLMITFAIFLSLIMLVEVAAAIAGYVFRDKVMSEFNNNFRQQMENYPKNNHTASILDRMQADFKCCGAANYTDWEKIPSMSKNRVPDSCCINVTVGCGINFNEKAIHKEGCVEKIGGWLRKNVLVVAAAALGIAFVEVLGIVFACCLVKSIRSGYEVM
UniProt P50991: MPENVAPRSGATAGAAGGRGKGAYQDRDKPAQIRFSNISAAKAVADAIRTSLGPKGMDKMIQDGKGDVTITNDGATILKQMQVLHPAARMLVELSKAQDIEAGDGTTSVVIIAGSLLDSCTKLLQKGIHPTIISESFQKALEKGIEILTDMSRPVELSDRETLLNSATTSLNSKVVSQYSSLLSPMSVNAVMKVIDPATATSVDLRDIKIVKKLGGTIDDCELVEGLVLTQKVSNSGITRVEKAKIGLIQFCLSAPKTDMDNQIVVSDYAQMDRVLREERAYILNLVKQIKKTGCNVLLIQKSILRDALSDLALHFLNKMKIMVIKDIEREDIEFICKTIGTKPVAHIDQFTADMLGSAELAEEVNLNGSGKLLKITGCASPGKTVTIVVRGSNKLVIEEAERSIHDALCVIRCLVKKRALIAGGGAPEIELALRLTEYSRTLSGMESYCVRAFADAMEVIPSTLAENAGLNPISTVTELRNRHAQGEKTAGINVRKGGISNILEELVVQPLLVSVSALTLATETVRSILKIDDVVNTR
UniProt P45973, whole entry, looked up: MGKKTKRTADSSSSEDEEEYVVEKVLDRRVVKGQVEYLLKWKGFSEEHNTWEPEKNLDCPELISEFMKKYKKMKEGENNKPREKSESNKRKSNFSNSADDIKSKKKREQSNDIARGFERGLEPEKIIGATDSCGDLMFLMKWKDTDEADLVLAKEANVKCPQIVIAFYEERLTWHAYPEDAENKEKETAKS
UniProt Q5T0F9: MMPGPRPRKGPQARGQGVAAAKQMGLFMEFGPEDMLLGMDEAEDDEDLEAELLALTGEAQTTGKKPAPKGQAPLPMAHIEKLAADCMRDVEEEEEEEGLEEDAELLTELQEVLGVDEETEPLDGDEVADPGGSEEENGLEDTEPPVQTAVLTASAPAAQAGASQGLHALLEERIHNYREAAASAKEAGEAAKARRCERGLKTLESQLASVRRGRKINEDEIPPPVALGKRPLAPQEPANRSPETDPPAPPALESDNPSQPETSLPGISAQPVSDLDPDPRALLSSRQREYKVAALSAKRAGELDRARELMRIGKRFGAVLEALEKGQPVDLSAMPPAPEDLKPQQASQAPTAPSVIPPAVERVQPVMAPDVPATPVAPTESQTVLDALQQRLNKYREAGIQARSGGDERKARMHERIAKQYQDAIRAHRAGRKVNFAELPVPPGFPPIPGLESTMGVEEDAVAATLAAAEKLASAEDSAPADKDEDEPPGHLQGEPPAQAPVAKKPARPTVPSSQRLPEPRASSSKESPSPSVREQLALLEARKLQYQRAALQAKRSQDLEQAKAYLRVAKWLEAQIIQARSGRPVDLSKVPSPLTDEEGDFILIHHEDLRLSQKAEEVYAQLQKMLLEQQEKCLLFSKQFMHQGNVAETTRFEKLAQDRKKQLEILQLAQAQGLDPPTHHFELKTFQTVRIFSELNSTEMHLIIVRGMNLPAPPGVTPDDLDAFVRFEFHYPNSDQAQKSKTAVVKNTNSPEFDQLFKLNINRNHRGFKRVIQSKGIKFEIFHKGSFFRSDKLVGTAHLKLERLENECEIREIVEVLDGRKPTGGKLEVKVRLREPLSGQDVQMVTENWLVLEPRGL
UniProt Q99832: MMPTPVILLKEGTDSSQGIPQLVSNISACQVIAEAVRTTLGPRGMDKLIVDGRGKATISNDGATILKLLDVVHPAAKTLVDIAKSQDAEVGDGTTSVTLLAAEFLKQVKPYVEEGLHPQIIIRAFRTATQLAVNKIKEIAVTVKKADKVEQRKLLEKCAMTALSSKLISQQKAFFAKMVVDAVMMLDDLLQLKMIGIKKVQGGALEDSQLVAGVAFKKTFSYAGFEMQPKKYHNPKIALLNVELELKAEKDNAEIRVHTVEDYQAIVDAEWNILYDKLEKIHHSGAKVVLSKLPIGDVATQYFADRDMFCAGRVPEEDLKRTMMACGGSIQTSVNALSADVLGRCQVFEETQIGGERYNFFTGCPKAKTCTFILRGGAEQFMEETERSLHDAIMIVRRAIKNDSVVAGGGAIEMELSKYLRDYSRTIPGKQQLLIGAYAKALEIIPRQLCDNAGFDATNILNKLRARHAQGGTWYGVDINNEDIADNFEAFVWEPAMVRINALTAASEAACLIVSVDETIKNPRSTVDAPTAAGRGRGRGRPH
UniProt P49589: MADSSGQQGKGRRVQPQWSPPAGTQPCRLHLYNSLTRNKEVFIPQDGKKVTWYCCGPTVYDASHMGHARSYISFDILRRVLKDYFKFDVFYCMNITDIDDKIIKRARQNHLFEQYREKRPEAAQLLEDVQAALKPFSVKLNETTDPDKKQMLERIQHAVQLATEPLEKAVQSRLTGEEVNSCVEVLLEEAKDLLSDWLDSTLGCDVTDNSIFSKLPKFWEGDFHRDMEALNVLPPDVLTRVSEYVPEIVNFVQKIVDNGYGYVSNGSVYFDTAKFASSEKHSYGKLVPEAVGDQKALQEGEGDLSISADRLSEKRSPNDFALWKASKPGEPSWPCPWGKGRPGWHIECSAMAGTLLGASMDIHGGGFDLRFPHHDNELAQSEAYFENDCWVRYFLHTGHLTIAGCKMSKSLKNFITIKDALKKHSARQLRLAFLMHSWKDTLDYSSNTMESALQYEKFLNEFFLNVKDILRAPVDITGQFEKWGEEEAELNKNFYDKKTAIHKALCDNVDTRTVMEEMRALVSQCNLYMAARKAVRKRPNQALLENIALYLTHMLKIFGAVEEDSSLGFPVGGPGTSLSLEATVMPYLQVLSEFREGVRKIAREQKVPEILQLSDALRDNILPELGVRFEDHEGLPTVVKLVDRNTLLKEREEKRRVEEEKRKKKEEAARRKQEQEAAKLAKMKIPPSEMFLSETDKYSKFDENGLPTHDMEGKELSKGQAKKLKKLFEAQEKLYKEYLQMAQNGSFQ

Tests used:
Assay in all cases: log2 fold change, soluble protein after heating vs DMSO (PISA); higher = thermal stabilisation; K562 lysate, 10 uM; active = over 0.2 and 3.5 SD of the protein, either way, in both replicates (recomputed)
[1] = compound: CS(=O)(=O)CCNCc1ccc(-c2ccc3ncnc(Nc4ccc(OCc5cccc(F)c5)c(Cl)c4)c3c2)o1 [lapatinib]
Method in brief: (§1)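 K562 pellets were dounce-homogenised in PBS pH 7.4 containing 1 mM MgCl2, and the crude extract, at 1 mg/mL protein, was exposed to 10 μM compound for 30 min. Aliquots were heated for 3 min across 48°C-58°C, pooled, brought to 0.5% NP-40 at 4°C and spun at 21,000xg for 90 min, with the supernatant taken as soluble protein. TMTpro 16plex LC-MS/MS with equalised channel sums quantified that protein. Values are log-two fold changes in thermal stability relative to solvent controls, taken from duplicates.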

[2] = compound: CS(=O)(=O)N1CCN(Cc2cc3nc(-c4cccc5[nH]ncc45)nc(N4CCOCC4)c3s2)CC1 [pictilisib]
Method in brief: as §1

[3] = compound: C[C@@H](Oc1cc(-c2cnn(C3CCNCC3)c2)cnc1N)c1c(Cl)ccc(F)c1Cl [crizotinib]
Method in brief: as §1

[4] = compound: C[C@H](C1=CC=C(C=C1)C(=O)NC2=C3C=CNC3=NC=C2)N
Method in brief: as §1

[5] = compound: C[C@H](Nc1ncnc2nc[nH]c12)c1cc2cccc(Cl)c2c(=O)n1-c1ccccc1 [duvelisib]
Method in brief: as §1

[6] = compound: Cc1cc(Nc2cc(CN3CCOCC3)c3nc(C)c(Cc4ccc(Cl)cc4F)n3n2)n[nH]1 [gandotinib]
Method in brief: as §1

[7] = compound: Cc1cc(Nc2cc(N3CCN(C)CC3)nc(Sc3ccc(NC(=O)C4CC4)cc3)n2)n[nH]1 [tozasertib]
Method in brief: as §1

[8] = compound: Cc1ccc(-n2nc(C(C)(C)C)cc2NC(=O)Nc2ccc(OCCN3CCOCC3)c3ccccc23)cc1 [doramapimod]
Method in brief: as §1

[9] = compound: Cc1ccc(NC(=O)c2ccc(CN3CC[C@H](N(C)C)C3)c(C(F)(F)F)c2)cc1Nc1nccc(-c2cncnc2)n1 [bafetinib]
Method in brief: as §1

[10] = compound: Cc1cccc(CC(=O)N2CCc3c2ccc(-c2cn(C)c4ncnc(N)c24)c3F)n1
Method in brief: as §1

[11] = compound: Cc1cn(-c2cc(NC(=O)c3ccc(C)c(Nc4nccc(-c5cccnc5)n4)c3)cc(C(F)(F)F)c2)cn1 [nilotinib]
Method in brief: as §1

[12] = compound: Cc1nc(Nc2n[nH]c3c2CN(C(=O)N[C@H](CN(C)C)c2ccccc2)C3(C)C)c2sccc2n1
Method in brief: as §1

[13] = compound: Cc1nc(Nc2ncc(C(=O)Nc3c(C)cccc3Cl)s2)cc(N2CCN(CCO)CC2)n1 [dasatinib]
Method in brief: as §1

[14] = compound: Cc1ncc(-c2ccnc(Nc3ccc(S(C)(=O)=O)cc3)n2)n1C(C)C
Method in brief: as §1

[15] = compound: Cn1cc(-c2ccc3c(c2)CCN3C(=O)Cc2cccc(C(F)(F)F)c2)c2c(N)ncnc21
Method in brief: as §1

[16] = compound: Cn1cc(CNCC2CCN(c3ncc(C(=O)NO)cn3)CC2)c2ccccc21 [quisinostat]
Method in brief: as §1

[17] = compound: Cn1cncc1[C@@](N)(c1ccc(Cl)cc1)c1ccc2c(c1)c(-c1cccc(Cl)c1)cc(=O)n2C [tipifarnib]
Method in brief: as §1

[18] = compound: NC(=O)Nc1cc(-c2cccc(F)c2)sc1C(=O)N[C@H]1CCCNC1
Method in brief: as §1

[19] = compound: NC(=O)c1cnc(N[C@@H]2CCCC[C@@H]2N)nc1Nc1cccc(-n2nccn2)c1
Method in brief: as §1

[20] = compound: NC1(c2ccc(-c3nc4ccn5c(=O)[nH]nc5c4cc3-c3ccccc3)cc2)CCC1
Method in brief: as §1

Target	log2 fold change [1]	log2 fold change [2]	log2 fold change [3]	log2 fold change [4]	log2 fold change [5]	log2 fold change [6]	log2 fold change [7]	log2 fold change [8]	log2 fold change [9]	log2 fold change [10]	log2 fold change [11]	log2 fold change [12]	log2 fold change [13]	log2 fold change [14]	log2 fold change [15]	log2 fold change [16]	log2 fold change [17]	log2 fold change [18]	log2 fold change [19]	log2 fold change [20]
CBFB (UniProt Q13951)	inactive: -0.016	inactive: -0.073	inactive: 0.021	inactive: 0.033	inactive: -0.01	inactive: -0.082	inactive: 0.054	inactive: 0.006	inactive: 0.05	inactive: 0.016	inactive: 0.05	inactive: -0.014	inactive: 0.017	inactive: 0.007	inactive: -0.012	inactive: -0.045	inactive: -0.008	inactive: 0.007	inactive: -0.01	inactive: 0.028
CCNC (UniProt P24863)	inactive: -0.108	inactive: 0.036	inactive: -0.037	inactive: 0.075	inactive: 0.009	inactive: -0.104	inactive: -0.025	active: 0.332	inactive: -0.123	inactive: 0.015	inactive: 0.013	inactive: 0.035	inactive: 0.04	inactive: 0.202	inactive: -0.017	inactive: 0	inactive: -0.049	inactive: 0.048	inactive: -0.007	inactive: -0.029
CCPG1 isoform 5 (UniProt Q9ULG6)	inactive: 0.114	inactive: -0.038	inactive: 0.006	inactive: -0.036	inactive: 0.006	inactive: -0.089	inactive: -0.021	inactive: 0.036	inactive: 0.035	inactive: 0.108	inactive: 0.067	inactive: 0.017	inactive: 0.013	inactive: 0.087	inactive: 0.004	inactive: -0.021	inactive: -0.033	inactive: 0.029	inactive: 0	inactive: -0.073
CBX1 (UniProt P83916)	inactive: 0.052	inactive: -0.006	inactive: 0.023	active: 0.279	inactive: 0.03	inactive: -0.143	inactive: -0.05	inactive: -0.034	inactive: 0.025	inactive: -0.138	inactive: 0.006	inactive: -0.003	inactive: 0.017	inactive: 0	inactive: -0.027	inactive: -0.004	inactive: -0.008	inactive: -0.004	inactive: 0.062	inactive: 0.012
CBR1 (UniProt P16152)	inactive: 0.023	inactive: -0.027	inactive: 0.043	inactive: -0.082	inactive: -0.037	inactive: 0.001	inactive: 0.003	inactive: -0.044	inactive: 0.034	inactive: 0.032	inactive: 0.046	inactive: 0.046	inactive: 0.1	inactive: 0.076	inactive: -0.02	inactive: 0.113	inactive: -0.001	inactive: -0.021	inactive: -0.02	inactive: 0.016
CASC4 (UniProt Q6P4E1)	inactive: -0.038	inactive: 0.069	inactive: 0.019	inactive: -0.088	inactive: 0.051	inactive: 0.016	inactive: 0.067	inactive: 0.057	inactive: -0.045	inactive: 0.02	inactive: -0.072	inactive: -0.006	inactive: 0.037	inactive: 0.053	inactive: 0.029	inactive: 0.021	inactive: -0.033	inactive: -0.024	inactive: 0.035	inactive: -0.011
CAVIN2 (UniProt O95810)	inactive: -0.028	inactive: -0.006	inactive: 0.022	inactive: -0.004	inactive: 0.022	inactive: 0.029	inactive: -0.003	inactive: 0.025	inactive: -0.001	inactive: 0.016	inactive: 0.038	inactive: 0.012	inactive: 0.016	inactive: 0.007	inactive: -0.029	inactive: 0	inactive: 0.013	inactive: -0.008	inactive: 0.004	inactive: 0.024
CCAR2 (UniProt Q8N163)	inactive: 0.002	inactive: -0.061	inactive: -0.067	inactive: -0.009	inactive: -0.015	inactive: 0.058	inactive: 0.026	inactive: 0.022	inactive: -0.011	inactive: 0.06	inactive: -0.001	inactive: -0.016	inactive: -0.069	inactive: -0.017	inactive: 0.018	inactive: -0.033	inactive: -0.013	inactive: 0.027	inactive: 0.014	inactive: -0.007
CD63 (UniProt P08962)	inactive: 0.006	inactive: -0.256	inactive: 0.036	active: -0.415	inactive: 0.025	inactive: 0.209	inactive: 0.013	inactive: 0.077	inactive: -0.08	inactive: 0.074	inactive: -0.053	inactive: 0.098	inactive: -0.034	inactive: -0.032	inactive: 0.005	inactive: -0.08	inactive: 0.126	inactive: -0.006	inactive: -0.043	inactive: -0.009
CCT4 (UniProt P50991)	inactive: -0.023	inactive: 0	inactive: 0.017	inactive: -0.021	inactive: 0.048	inactive: -0.029	inactive: 0.015	inactive: 0.036	inactive: -0.006	inactive: -0.028	inactive: 0.04	inactive: -0.001	inactive: 0.047	inactive: 0.025	inactive: 0.04	inactive: 0.03	inactive: -0.004	inactive: -0.031	inactive: -0.004	inactive: 0.025
CBX5 (UniProt P45973)	inactive: 0.06	inactive: 0.024	inactive: -0.023	inactive: -0.187	inactive: -0.036	inactive: 0.077	inactive: 0.006	inactive: 0.006	inactive: -0.001	inactive: 0.064	inactive: 0.014	inactive: 0.011	inactive: 0.028	inactive: 0.052	inactive: -0.017	inactive: -0.09	inactive: -0.024	inactive: 0.014	inactive: -0.004	inactive: 0.007
CC2D1B isoform 2 (UniProt Q5T0F9)	inactive: 0.017	inactive: -0.031	inactive: -0.03	inactive: -0.005	inactive: -0.014	inactive: 0.023	inactive: -0.026	inactive: 0.028	inactive: -0.021	inactive: -0.009	inactive: -0.021	inactive: 0.026	inactive: 0.023	inactive: -0.012	inactive: -0.025	inactive: -0.059	inactive: 0.019	inactive: 0.001	inactive: 0.022	inactive: 0.007
CARNMT1 (UniProt Q8N4J0)	inactive: 0.01	inactive: -0.029	inactive: -0.131	active: -0.354	inactive: 0.018	inactive: 0.038	inactive: -0.04	inactive: 0.01	inactive: -0.078	inactive: 0.181	inactive: 0.019	inactive: -0.016	inactive: 0.003	inactive: -0.019	inactive: 0.006	inactive: -0.173	inactive: 0.011	inactive: 0.004	inactive: 0.019	inactive: -0.023
CCT7 (UniProt Q99832)	inactive: 0.005	inactive: 0.002	inactive: 0.02	inactive: 0.012	inactive: 0.031	inactive: -0.021	inactive: 0.009	inactive: 0.037	inactive: 0.065	inactive: -0.03	inactive: -0.006	inactive: 0.006	inactive: 0.044	inactive: 0.001	inactive: -0.004	inactive: 0.032	inactive: 0.008	inactive: -0.024	inactive: 0.001	inactive: -0.008
CCNDBP1 (UniProt O95273)	inactive: 0.077	inactive: -0.041	inactive: -0.009	inactive: 0.138	inactive: -0.019	inactive: -0.062	inactive: 0.083	inactive: 0.024	inactive: -0.022	inactive: -0.092	inactive: 0.005	inactive: 0.009	inactive: -0.017	inactive: -0.013	inactive: 0.071	inactive: -0.02	inactive: -0.018	inactive: 0.055	inactive: -0.01	inactive: 0.014
CARS isoform 3 (UniProt P49589)	inactive: -0.006	inactive: -0.006	inactive: 0.019	inactive: 0.003	inactive: -0.015	inactive: -0.045	inactive: 0.014	inactive: 0.014	inactive: -0.008	inactive: -0.011	inactive: -0.019	inactive: -0.007	inactive: -0.024	inactive: -0.007	inactive: 0.012	inactive: 0.048	inactive: 0.007	inactive: 0.004	inactive: 0.001	inactive: -0.01

Part of the list above, bar-delimited.
Target | log2 fold change [1] | log2 fold change [2] | log2 fold change [3] | log2 fold change [4] | log2 fold change [5] | log2 fold change [6] | log2 fold change [7] | log2 fold change [8] | log2 fold change [9] | log2 fold change [10] | log2 fold change [11] | log2 fold change [12] | log2 fold change [13] | log2 fold change [14] | log2 fold change [15] | log2 fold change [16] | log2 fold change [17] | log2 fold change [18] | log2 fold change [19] | log2 fold change [20]
CCT4 (UniProt P50991) | inactive: -0.023 | inactive: 0 | inactive: 0.017 | inactive: -0.021 | inactive: 0.048 | inactive: -0.029 | inactive: 0.015 | inactive: 0.036 | inactive: -0.006 | inactive: -0.028 | inactive: 0.04 | inactive: -0.001 | inactive: 0.047 | inactive: 0.025 | inactive: 0.04 | inactive: 0.03 | inactive: -0.004 | inactive: -0.031 | inactive: -0.004 | inactive: 0.025
CBX5 (UniProt P45973) | inactive: 0.06 | inactive: 0.024 | inactive: -0.023 | inactive: -0.187 | inactive: -0.036 | inactive: 0.077 | inactive: 0.006 | inactive: 0.006 | inactive: -0.001 | inactive: 0.064 | inactive: 0.014 | inactive: 0.011 | inactive: 0.028 | inactive: 0.052 | inactive: -0.017 | inactive: -0.09 | inactive: -0.024 | inactive: 0.014 | inactive: -0.004 | inactive: 0.007
